# Measurements taken from PubChem BioAssay AID1745850 (National Center for Advancing Translational Sciences (NCATS), 2022).
# Hit rate of the full screen: of about 2,100 compounds, about 260 (12%) were called active. Inconclusive results, whose numbers are uncertain, are shown with a selection of clear calls. Calls follow the shape of the dose curve; as a rule, active = well fitted cell-killing curve with a large enough effect; inconclusive = small, poorly fitted or top-dose-only effect, or effect the other way; inactive = flat fitted curve, though single readings scatter. A potency beside an inconclusive call is a rough fit, not a confirmed value.
# Assay: Viability Counterscreen for Confirmatory qHTS for Inhibitors of ATXN expression; also: nearly all actives have a fitted effect of over 50% in size
# Details: HEK-293 ATXN2-luc cells viability, CellTiter-Fluor, 24 h
# Summary of the method: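 Luminescence read-out (SteadyGlo, 5 min) followed a 30 min Gly-Phe-AFC (25 uM final) viability fluorescence read. ATXN2-luciferase reporter cells were exposed 24 h to a dilution series. Medium-only wells served as the 100% inhibition reference.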
# Potency is read from the fitted curve at half-maximal effect.
row,SMILES,Potency
1,CC(C)[C@H](NC(=O)c1ccc(C(C)(C)C)cc1)C(=O)N1CCN(Cc2ccc3c(c2)OCO3)CC1,"inconclusive: 39.8 µM [cytotoxic, single point]"
2,O=C(NCCc1ccccc1)c1ccc2nccnc2c1,inactive
3,O=C(NCCc1csc(-c2ccc(Cl)cc2)n1)c1ccco1,inactive
4,Clc1ccc(C[n+]2cc(-c3ccccc3)n3c2CCCCC3)c(Cl)c1,"inconclusive: 25.1 µM [cytotoxic, partial curve, poor fit]"
5,COc1ccc(-c2csc(NC(=O)c3ccccc3NS(=O)(=O)c3ccc(F)c(F)c3)n2)cc1,active: 5.62 µM
6,COc1cccc(/C=N/NC(=O)c2ccc(=O)n(C)c2)c1O,"inconclusive: 20 µM [cytotoxic, partial curve]"
7,CN1CCC[C@H]1CCNc1ccc2c(=O)c3ccccc3n(C)c2c1,inactive
8,COc1ccc(-c2nn(-c3ccccc3)cc2C(=O)NC(=S)NNC(=O)c2ccncc2)cc1,"inconclusive: 39.8 µM [cytotoxic, single point]"
9,O=C(CCC(=O)Nc1cc(C(F)(F)F)ccc1Cl)N/N=C\c1cc([N+](=O)[O-])ccc1O,"inconclusive: 3.55 µM [cytotoxic, single point]"
10,CC(=O)Nc1ccc(NC2=Nc3ccccc3N3C2=Nc2c(c(C)nn2-c2ccccc2)C3c2ccccc2)cc1 (stereo not drawn),inactive
11,Cc1nc2ccccc2c(=O)n1/N=C/c1cc(Br)ccc1O,"inconclusive: 39.8 µM [cytotoxic, single point]"
12,O=C(Nc1ccc(CN2CCCCC2)cc1)Nc1ccc(Br)cc1Cl,"inconclusive: 28.2 µM [cytotoxic, single point]"
13,CSCc1nnc(NC(=O)c2ccc(S(=O)(=O)N3CCCCC3C)cc2)o1 (stereo not drawn),"inconclusive: 22.4 µM [cytotoxic, partial curve, poor fit]"
14,CC(C)c1ccc2c(c1)C(N1CCNCC1)Cc1ccc(F)cc1S2 (stereo not drawn),"inconclusive: 39.8 µM [cytotoxic, single point]"
15,O=c1cc(-c2cccnc2)oc2c1ccc1ccccc12,"inconclusive: 3.16 µM [cytotoxic, single point]"
16,COc1cccc(/C=N/NC(=O)c2cc3c(OC)cccc3[nH]2)c1O,inactive
17,Cc1sc2cc3c(c(C(=O)c4ccccc4)[n+]2c1C)-c1cccc2cccc-3c12,active: 12.6 µM
18,CCn1c2ccccc2c2cc(/C=C(/C#N)C(N)=S)ccc21,inactive
19,COc1ccc(-c2csc3ncnc(Sc4nnnn4C)c23)cc1,"inconclusive: 3.16 µM [cytotoxic, partial curve]"
20,O=C(/C=C/c1ccccc1Cl)c1ccccc(=O)c1O,"inconclusive: 39.8 µM [cytotoxic, single point]"
21,CN(Cc1ccccc1)C(=O)c1ccc(NC(=O)C2CCN(C(=O)OC(C)(C)C)CC2)cc1,"inconclusive: 31.6 µM [cytotoxic, partial curve]"
22,CN(C)CCNc1ncnc2c1sc1nc(N3CCCC3)c3c(c12)CC(C)(C)OC3,active: 25.1 µM
23,CCN(CC)C(=O)C1=C(C)N(CCC2=CCCCC2)C(=O)C(CC(=O)NC(c2ccccc2)c2ccccc2)C1 (stereo not drawn),inactive

row,SMILES,Potency
2,COc1cccc(C(=O)c2sc(NC(C)C)nc2N)c1,"inconclusive: 7.08 µM [cytotoxic, partial curve, poor fit]"
3,CCc1nnc(NC(=O)c2ccc(S(=O)(=O)N(C)Cc3ccccc3)cc2)o1,"inconclusive: 20 µM [cytotoxic, partial curve]"
4,Oc1ccc(Cl)c2cccnc12,"inconclusive: 28.2 µM [cytotoxic, single point]"
5,COc1ccc(-c2csc(N(CCCN(C)C)C(=O)c3ccccc3Cl)n2)cc1,"inconclusive: 3.98 µM [cytotoxic, single point]"
6,COc1ccc(C2CC(c3ccccc3Cl)=NN2c2ccc(S(N)(=O)=O)cc2)cc1 (stereo not drawn),inactive
7,CCCCc1ccc(NC(=O)N2CCN(c3cc(C)nc4ccccc34)CC2)c(C)c1,"inconclusive: 39.8 µM [cytotoxic, single point]"
8,CC1=CC(C)(C)N2C(=O)C3(SCC(=O)N3c3ccc(F)cc3)c3cc(C)cc1c32 (stereo not drawn),inactive
9,Oc1c(C(Nc2ccccn2)c2ccccn2)ccc2cccnc12 (stereo not drawn),"inconclusive: 7.94 µM [cytotoxic, full curve]"
10,CCOC(=O)N1CCN(Cc2cc(Cl)c3cccnc3c2O)CC1,inactive
11,COc1cccc(CN2CCC2(C)C(=O)Nc2cccc3cccnc23)c1OC (stereo not drawn),inactive
12,COc1ccc(-c2nnc(NC(=O)c3ccc(S(=O)(=O)N4COCC4(C)C)cc3)o2)cc1,inactive
13,NS(=O)(=O)c1ccc(CCNc2nn3c(-c4cccc(OC(F)(F)F)c4)cnc3s2)cc1,"inconclusive: 3.16 µM [cytotoxic, single point]"
14,COc1cc(C#Cc2c(-c3cncn3C)n(C)c3ccc(-c4cc(OC)c(OC)c(OC)c4)cc23)cc(OC)c1,"inconclusive: 39.8 µM [cytotoxic, single point]"
15,Cn1c(CCN2CCN(c3ccccn3)CC2)nc2cc(NC(=O)COc3ccc(Cl)cc3)ccc21,"inconclusive: 22.4 µM [cytotoxic, partial curve, poor fit]"
16,CCOc1ccccc1NC(=O)CCCc1nc2ccccc2c(=O)[nH]1,inactive
17,N#C/C(=C\Nc1ccc2cn[nH]c2c1)c1nc(-c2ccc(Cl)cc2)cs1,"inconclusive: 3.98 µM [cytotoxic, single point]"
18,O=C(N/N=C/c1ccccc1O)C1SCCCS1,"inconclusive: 22.4 µM [cytotoxic, single point]"
19,O=C(/C=C\c1ccco1)Nc1nc(-c2ccc3ccccc3c2)cs1,inactive
20,Cc1nn(Cc2ccc(Cl)cc2)c(C)c1NC(=O)c1noc2c1CCc1ccccc1-2,"inconclusive: 35.5 µM [cytotoxic, single point]"
21,O=C(CCN1CCN(c2ccccc2)CC1)N/N=C/c1ccccc1O,inactive
22,O=C(Nc1ccc(OCC(F)(F)C(F)F)c(C(F)(F)F)c1)c1ccc(Cl)cc1,"inconclusive: 10 µM [cytotoxic, partial curve, poor fit]"
23,COc1cc2[nH]c(=O)n(CCCCCC(=O)N3CC=C(c4ccccc4)CC3)c(=O)c2cc1OC,active: 3.16 µM

# Copied from the list:
# `O=C(Nc1ccc(OCC(F)(F)C(F)F)c(C(F)(F)F)c1)c1ccc(Cl)cc1` | Potency: inconclusive: 10 µM [cytotoxic, partial curve, poor fit]
# `COc1ccc(-c2csc(N(CCCN(C)C)C(=O)c3ccccc3Cl)n2)cc1` | Potency: inconclusive: 3.98 µM [cytotoxic, single point]
# `COc1cccc(C(=O)c2sc(NC(C)C)nc2N)c1` | Potency: inconclusive: 7.08 µM [cytotoxic, partial curve, poor fit]

# Additional entries:

row,SMILES,Potency
1,O=C(CCCN1C(=O)/C(=C/c2ccccc2Cl)SC1=S)NNC(=O)c1ccc(Cl)cc1Cl,"inconclusive: 39.8 µM [cytotoxic, single point]"
2,CN(C)S(=O)(=O)c1ccc(-c2csc(N/N=C/c3ccco3)n2)cc1,"inconclusive: 2.51 µM [cytotoxic, partial curve]"
3,CN(CC(=O)NCc1ccc(F)cc1)CC(=O)Nc1ccc(Cl)c(C(F)(F)F)c1,"inconclusive: 35.5 µM [cytotoxic, single point]"
4,COc1cccc(C(NC(C)=O)c2ccc3cccnc3c2O)c1 (stereo not drawn),active: 8.91 µM
5,CN(C)CCOc1nc(-c2ccccc2)nc2c1oc1ccccc12,"inconclusive: 35.5 µM [cytotoxic, single point]"
6,CCOP(=O)(OCC)C(Cc1ccccc1)N=C(c1ccccc1)c1ccccc1 (stereo not drawn),"inconclusive: 39.8 µM [cytotoxic, single point]"
7,CC(C)CCn1c(N)c(S(=O)(=O)c2cccs2)c2nc3ccccc3nc21,"inconclusive: 3.55 µM [cytotoxic, single point]"
8,CCc1nc2c(OCCOc3ccc(F)cc3)cccn2c1N(C=O)Cc1ccc(OC)cc1,"inconclusive: 39.8 µM [cytotoxic, single point]"
9,Cc1cccc(C(=O)N/N=C2\CS(=O)(=O)N(C)c3ccsc32)c1,"inconclusive: 39.8 µM [cytotoxic, single point]"
10,O=S(=O)(c1ccc2c(c1)OCCO2)N1CCC(c2nc3ccc(Cl)cc3[nH]2)CC1,"inconclusive: 3.16 µM [cytotoxic, partial curve, poor fit]"
11,CC(=O)NC(c1ccc2ccccc2c1)c1ccc2cccnc2c1O (stereo not drawn),"inconclusive: 0.708 µM [cytotoxic, partial curve, poor fit]"
12,Oc1c(CN2CCCCC2)ccc2cccnc12,"inconclusive: 12.6 µM [cytotoxic, partial curve]"
13,NS(=O)(=O)c1ccc(N2N=C(c3ccccc3)CC2c2cccc(Br)c2)cc1 (stereo not drawn),"inconclusive: 35.5 µM [cytotoxic, single point]"
14,CCOC(=O)C1=CCN(S(=O)(=O)c2ccc(C)cc2)C1c1cccc(Cl)c1 (stereo not drawn),inactive
15,CCOC(=O)C1CCN(c2ncnc3c2cnn3-c2ccc(Cl)cc2)CC1,inactive
16,CN(C)S(=O)(=O)c1cc(NC(=O)CSc2ncc(C(F)(F)F)cc2Cl)ccc1Cl,"inconclusive: 39.8 µM [cytotoxic, single point]"
17,COc1cccc(NC(=O)/C=C/c2ccc(S(=O)(=O)N3CCOCC3)cc2)c1,inactive
18,CCn1cc(C(=O)NCc2cccc(F)c2)c(=O)c2cc(F)c(N3CCN(C(=O)c4ccco4)CC3)cc21,active: 22.4 µM
19,NC(=O)N/N=C/c1c(O)ccc2oc3c(c12)CCCC3,"inconclusive: 39.8 µM [cytotoxic, single point]"
20,O=C(CN1C(=O)c2ccccc2S1(=O)=O)Nc1ncc(Cl)cc1Cl,inactive
21,Cc1nc(-c2c(C(F)(F)F)noc2-c2ccc(O)cc2O)cs1,"inconclusive: 39.8 µM [cytotoxic, single point]"
22,COc1ccc(CNC(=O)c2ccc(-c3cccnc3)c3ccoc23)cc1OC,"inconclusive: 31.6 µM [cytotoxic, partial curve, poor fit]"
